This is one part of the list. Further columns of the screen follow, without active or inactive calls. Compounds called inactive in the main read-out are mostly missing here. Words in brackets tell the shape of the fitted curve; partial curves, single points and poor fits give uncertain potencies.

This assay can be described thus: qHTS Assay to Find Inhibitors of Chronic Active B-Cell Receptor Signaling. The following applies: ABC-DLBCL IkBa-CBG/CBR reporter, luminescence ratio (green luciferase fused to IkBa over red control in TMD8 lymphoma cells), 4 h. In outline: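 TMD8 human ABC-DLBCL cells with doxycycline-inducible IκBα–green luciferase fusion and unfused red luciferase, in 0.5% FBS medium; compounds up to 46 uM, 4 h at 37C. Green/red luminescence ratio, filter-overlap corrected, fitted to concentration-response curves.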

[1] abbreviates: measured here: CBR red luminescence, cell number.
[2] abbreviates: measured here: IkBa-CBG green luminescence.

The term AC50 denotes the midpoint of the concentration-response curve, whichever way the signal moves. On to `CC(C)(C)c1nnc(N/N=C/c2ccc(O)cc2)n(N)c1=O`, for which the AC50 under setting [1] was 29.1 µM [rising, single point].

For the compound `COc1ccccc1NC(=O)Cc1csc(NC(=S)Nc2ccccc2)n1`, under setting [1], the AC50 is 1.26 µM [rising, partial curve, poor fit].

For the compound `O=C(CN(c1ccc(F)cc1)S(=O)(=O)c1ccc2c(c1)OCCO2)NCc1ccncc1`, the AC50 under setting [1] was 35.5 µM [falling, single point]. For the compound `COc1ccccc1/C=C1\SC(=S)N(CCC(=O)Nc2ccc(C(=O)O)c(O)c2)C1=O`, under setting [1], the concentration at half-maximal activity (AC50) was 10 µM [falling, single point]. In the case of `Cc1cccc(OCCNC(=O)c2ccc(Cl)c(S(=O)(=O)NCc3cccnc3)c2)c1`, the AC50 under setting [2] is 16.4 µM [falling, single point]. In the case of `Cc1cc(C)cc(N(C(=O)Cn2nnc3ccccc32)C(C(=O)NCc2ccco2)c2ccncc2)c1` (stereo not given), under setting [2], the AC50 was 29.1 µM [rising, partial curve, poor fit]. Turning to `O=C(COC(=O)C1CCN(c2ccc(C(F)(F)F)cn2)CC1)NC1CCCCC1`, the AC50 under setting [1] is 20.6 µM [rising, partial curve, poor fit]. The same measure, in the same setting: under `O=C(Nc1nc2c(F)cccc2s1)c1ccc([N+](=O)[O-])o1` stands 0.224 µM [falling, full curve].

For the compound `Clc1ccc(CSc2ncccn2)cc1`, the AC50 under setting [1] is 25.9 µM [rising, single point]. Still for that read-out and setting: next, `C#CCOCCOCCOCCNc1nc(N2CCN(C(=O)CCCCCCCCCCNC(=O)[C@H]([C@@H](C)CC)n3cc(CCCCCN)nn3)CC2)nc(N2CCN(C(=O)CCCCCCCCCCNC(=O)[C@@H]([C@H](C)O)n3cc(C)nn3)CC2)n1`: 29.1 µM [falling, single point]. Take `CC(C)COC(=O)n1c(SCC(=O)N(C)C)nc2ccccc21`: the concentration at half-maximal activity (AC50) under setting [1] was 0.794 µM [falling, full curve, poor fit].

For the compound `COc1ccc(C(=O)Nc2ccc3cn[nH]c3c2)c(OC)c1`, under setting [1], the AC50 was 11.2 µM [falling, partial curve, poor fit]. The same measure, in the same setting: next, `O=C(N/N=C/c1ccccc1C(F)(F)F)c1ccc(O)cc1`: 7.94 µM [falling, partial curve]; `CCCCOc1ccc(C2C(C(=O)c3ccc(C)o3)=C(O)C(=O)N2CC2CCCO2)cc1` (stereo not given): 0.651 µM [rising, partial curve, poor fit]. On to `CCc1ccc2[nH]c(O)c(N=NC3=NC(=O)CS3)c2c1`, for which the AC50 under setting [1] was 5.62 µM [falling, single point].

As to `COc1ccc(CN(CC(=O)NCC2CCCO2)C(=O)CCC(=O)Nc2cc(C)on2)cc1` (stereo not given), under setting [1], the concentration at half-maximal activity (AC50) was 9.2 µM [rising, partial curve, poor fit]. Same read-out and setting: under `CCC1(C(=O)c2ccccc2)C(c2ccc([N+](=O)[O-])cc2)C1(C(=O)OC)C(=O)OC` (stereo not given) stands 23.1 µM [falling, partial curve, poor fit]; under `Cc1ccccc1/C=N/NC(=O)CSc1nc2ccccc2o1`, 0.92 µM [rising, full curve, poor fit].

Regarding `Cn1nccc1/C=C(/C#N)S(=O)(=O)c1ccccc1`, the half-maximal activity concentration (AC50) under setting [1] was 29.1 µM [falling, single point]. On the same count and under the same terms, under `O=C(c1cccc([N+](=O)[O-])c1)c1cc2ccccc2o1` stands 4.11 µM [rising, partial curve, poor fit]; under `Fc1ccc2[nH]c3c(N4CCSCC4)ncnc3c2c1`, 0.82 µM [falling, partial curve, poor fit]; under `O=C(Nc1cccc([N+](=O)[O-])c1)c1cc2ccccc2cc1O`, 7.94 µM [falling, partial curve, poor fit]. Regarding `CNC[C@H](CC1CCCCC1)NC[C@H](CO)NCCc1cccc(C(F)(F)F)c1`, the AC50 under setting [1] was 25.1 µM [falling, single point].

Turning to `CCOC(=O)C(NC(=O)c1ccc(F)cc1)(Nc1sc2c(c1C(N)=O)CCC2)C(F)(F)F` (stereo not given), the AC50 under setting [1] was 14.6 µM [rising, partial curve, poor fit]. Same read-out and setting: next, `Cc1ccc(NC(=O)c2cc(C)no2)cc1`: 3.55 µM [rising, single point]. Still for that read-out and setting: under `CC(C)(C)c1ccc(C(=O)NCCNC(=O)c2ccco2)cc1` stands 7.08 µM [rising, partial curve, poor fit]; under `O=C(OCc1ccccc1Cl)c1cccnc1Cl`, 6.51 µM [rising, full curve]; under `CSc1ccc(CNc2ccc(C)c(C)c2)cc1`, 17.8 µM [rising, partial curve, poor fit]. For the compound `Clc1ccc2nc(-c3ccc(Cl)nc3)[nH]c2c1`, under setting [1], the concentration at half-maximal activity (AC50) is 11.2 µM [falling, single point].

For `O=C(c1cnn(-c2ccccc2)c1)c1cc(Br)ccc1O`, under setting [1], the AC50 was 4.61 µM [rising, full curve, poor fit]. In the case of `O=C(Nc1ccccc1O)C(c1ccccc1)c1ccccc1`, under setting [1], the concentration at half-maximal activity (AC50) is 35.5 µM [falling, single point]. As to `Cc1sc2ncnc(N3CCC(C(=O)NNC(=O)COc4cccc(C(F)(F)F)c4)CC3)c2c1C`, under setting [1], the half-maximal activity concentration (AC50) is 32.6 µM [falling, partial curve, poor fit]. The same measure, in the same setting: next, `CCSc1nsc(SCC)c1C(N)=O`: 12.6 µM [rising, single point]. `Cc1cc(C)nc(N(C#N)Cc2ccccc2Cl)n1`: the AC50 under setting [2] was 28.2 µM [falling, partial curve, poor fit]. Regarding `COC(=O)C1=C(C)N(Cc2ccccc2)C(=NCC(C)C)N[C@H]1c1cccc(C(F)(F)F)c1`, the AC50 under setting [1] was 16.4 µM [falling, single point]. Regarding `CCN1C(=O)C(CC(=O)Nc2ccc(F)cc2)N(Cc2cccs2)C1=S` (stereo not given), the AC50 is 35.5 µM [falling, single point] under setting [1] and 14.1 µM [rising, single point] under setting [2].

As to `Oc1cccnc1SCc1ccccc1`, the half-maximal activity concentration (AC50) under setting [1] is 3.26 µM [rising, partial curve, poor fit]. Consider `CC(C)(C)SCCNC(=O)/C=C/c1ccccc1`, for which the half-maximal activity concentration (AC50) under setting [1] was 35.5 µM [falling, single point]. The same measure, in the same setting: next, `O=c1c2cc(Br)ccc2[nH]c(=S)n1Cc1ccccc1`: 3.98 µM [falling, full curve, poor fit]; `Cc1ccc(SCc2cn3cccnc3n2)cc1`: 5.62 µM [falling, single point]. Same read-out and setting: under `COc1ccccc1/C=N/NC1=NCCCCC1` stands 31.6 µM [falling, partial curve, poor fit]. As to `COc1cccc(C(=O)/C=C/Nc2ccc(S(=O)(=O)Nc3nc(C)cc(C)n3)cc2)c1`, the AC50 under setting [1] was 14.6 µM [rising, partial curve]. Same read-out and setting: under `O=C(NCCc1ccc(Cl)cc1)C1CCN(Cc2cc3ccccc3n2Cc2ccccc2)CC1` stands 1.26 µM [falling, full curve, poor fit]. In the case of `Cc1cc(C)c(COc2ccc(/C=N/n3c(C)n[nH]c3=S)cc2)c(C)c1`, the AC50 under setting [1] is 29.1 µM [falling, single point]. The same measure, in the same setting: under `CCN(C(=O)COc1ncnc2ccccc12)C1CCCCC1` stands 6.51 µM [rising, single point]; under `CCOc1ccc(NC(=O)c2cc([N+](=O)[O-])ccc2N2CCOCC2)cc1`, 16.4 µM [falling, single point]. Same read-out and setting: under `CCN(CC)C(=O)c1cc(-c2ccc(Br)cc2)on1` stands 35.5 µM [falling, single point]; under `Cc1ccc(F)cc1S(=O)(=O)NCc1ccc(N2CCN(C)CC2)cc1`, 7.08 µM [rising, full curve, poor fit]; under `COC(=O)CSc1nc2nc(-c3cccs3)cc(C(F)(F)F)c2c(=O)[nH]1`, 14.1 µM [rising, single point].

With `O=C(CSc1nc2ccccc2nc1N1CCCC1)Nc1ccc(F)cc1`, under setting [1], the half-maximal activity concentration (AC50) was 4.47 µM [falling, full curve, poor fit]. As to `Cc1ccc(-c2ccc(SCC(=O)NC3CCCC3)nn2)cc1`, the AC50 is 35.5 µM [rising, single point] under setting [1] and 35.5 µM [falling, single point] under setting [2]. Consider `CN(C)c1ccc(C(=O)OCC(=O)c2cccs2)cc1`, for which the AC50 under setting [1] is 16.4 µM [falling, single point]. The same measure, in the same setting: next, `COc1ccc(NC(=O)CSc2n[nH]c(-c3ccncc3)n2)cc1Cl`: 4.11 µM [rising, full curve, poor fit]; `Cc1cc2c(cn1)C(CCC#N)(CCC#N)c1ccccc1-2`: 8.91 µM [rising, partial curve].

On to `COc1ccc(/C=N/NC(=O)c2ccc3c(c2)OCCO3)cc1[N+](=O)[O-]`, for which the half-maximal activity concentration (AC50) under setting [1] was 1.84 µM [falling, full curve, poor fit]. As for `COC(=O)C1=C(C)N(Cc2ccccc2)C(=NCc2cc(OC)c(OC)c(OC)c2)N[C@H]1c1ccccc1`, the AC50 under setting [1] is 11.2 µM [falling, partial curve]. Same read-out and setting: next, `O=C(CN1CCN(C(=O)c2cccc(F)c2)CC1)NC1CCCCC1`: 4.11 µM [falling, full curve, poor fit]; `N/N=C/C(=N\Nc1ccc(Cl)cc1)C(=O)c1ccncc1`: 2.24 µM [rising, full curve, poor fit]. Still for that read-out and setting: next, `CCCn1cnc2cc(NCc3cccc(OC)c3)ccc21`: 5.17 µM [falling, partial curve]; `COc1ccccc1-c1nnc2sc(COc3ccc(Cl)cc3)nn12`: 9.2 µM [falling, partial curve, poor fit]; `N#Cc1ccccc1OCC(=O)N1CCN(S(=O)(=O)c2ccc(Cl)cc2)CC1`: 16.4 µM [falling, partial curve]. On to `CC1(C)Oc2ccc3ccc(=O)oc3c2-c2cn[nH]c21`, for which the AC50 under setting [2] was 3.26 µM [falling, single point].

Turning to `Cn1c2ccc(F)cc2c2ncn(CCN3CCOCC3)c(=O)c21`, the AC50 under setting [1] was 0.00517 µM [rising, full curve, poor fit].

For the origin of these results see PubChem BioAssay AID493014 (National Center for Advancing Translational Sciences (NCATS), 2011).
